Data source: PubChem BioAssay AID504791 (Drosophila RNAi Screening Center, 2011)
Screen: 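Factors in Argonaute-based small RNA production and activity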 (primary screen). System: Drosophila S2-derived reporter cells. Reagent: long dsRNA against Drosophila genes, about 150-250 ng dsRNA per well (siRNA assay); about 80-120 ng (miRNA assay). Timing: about 5 days (siRNA assay); about 4 days (miRNA assay). Treatment: copper sulfate induction of reporters: 25 µM (siRNA assay); 200 mM stated (miRNA assay), 1-2 days before reading. Read-out: 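Per-well ratio of Renilla over firefly light, expressed relative to that plate's average ratio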. Units: stable assay Renilla, run 1 in luminescence; stable assay firefly, run 1 in luminescence. Call rule: 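First-pass picks had plate-scaled ratios over 1.5 for the siRNA assay, over 1.6 for the miRNA assay, or under 0.6; two distinct dsRNAs had to score alike on retest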.
The screen tested about 23,000 reagents; below is a random part of those that have a named target and a result. Over the whole deposit, 199 (0.86%) got an active call. 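Plate-scaled ratios behind the calls are not deposited; printed light signals are raw; many rows marked increased or decreased are still called inactive.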 Names joined by + are all predicted targets of the reagent. Not stated in the record: the direction of the score.

Hsp67Bc (Heat shock gene 67Bc) [DRSC11193] | stable assay Renilla, run 1: 7336; stable assay firefly, run 1: 4.57e5; activity call: inactive
CstF64 (Cleavage stimulation factor 64 kD subunit) [DRSC16616] | stable assay Renilla, run 1: 9186; stable assay firefly, run 1: 4.88e5; activity call: inactive
CG12912 [DRSC06227] | stable siRNA reporter change: reporter ratio raised past the hit cutoff; miRNA reporter change: reporter ratio raised past the hit cutoff; stable assay Renilla, run 1: 4267; stable assay firefly, run 1: 1.44e5; activity call: inactive
Mpcp1 [DRSC07337] | stable assay Renilla, run 1: 5799; stable assay firefly, run 1: 3.72e5; activity call: inactive
CG31088 [DRSC13123] | stable assay Renilla, run 1: 4323; stable assay firefly, run 1: 4.44e5; activity call: inactive
Sxl + CG14425 (retired record) [DRSC18721] | stable assay Renilla, run 1: 6922; stable assay firefly, run 1: 3.34e5; activity call: inactive
Sxl + CG14425 (retired record) [DRSC18722] | stable assay Renilla, run 1: 6146; stable assay firefly, run 1: 3.13e5; activity call: inactive
Sxl + CG14425 (retired record) [DRSC21490] | stable assay Renilla, run 1: 8932; stable assay firefly, run 1: 4.97e5; activity call: inactive
Dlip3 (Dorsal interacting protein 3) [DRSC07401] | stable assay Renilla, run 1: 5631; stable assay firefly, run 1: 2.78e5; activity call: inactive
CG17824 (retired record) [DRSC10288] | stable assay Renilla, run 1: 6238; stable assay firefly, run 1: 3.86e5; activity call: inactive
CG14933 + CG42486 [DRSC02415] | stable assay Renilla, run 1: 7466; stable assay firefly, run 1: 5.00e5; activity call: inactive
5-HT2B (5-hydroxytryptamine (serotonin) receptor 2B) [DRSC16360] | stable assay Renilla, run 1: 6771; stable assay firefly, run 1: 3.59e5; activity call: inactive
5-HT2B (5-hydroxytryptamine (serotonin) receptor 2B) [DRSC16362] | stable assay Renilla, run 1: 7603; stable assay firefly, run 1: 4.59e5; activity call: inactive
CysRS-m (Cysteinyl-tRNA synthetase, mitochondrial) [DRSC07129] | stable assay Renilla, run 1: 10634; stable assay firefly, run 1: 4.64e5; activity call: inactive
Or94a (Odorant receptor 94a) [DRSC16772] | stable assay Renilla, run 1: 6370; stable assay firefly, run 1: 2.64e5; activity call: inactive
repo (reversed polarity) [DRSC16369] | stable assay Renilla, run 1: 6675; stable assay firefly, run 1: 2.22e5; activity call: inactive
repo (reversed polarity) [DRSC23108] | stable assay Renilla, run 1: 3275; stable assay firefly, run 1: 2.97e5; activity call: inactive
SP1173 [DRSC11277] | stable assay Renilla, run 1: 7787; stable assay firefly, run 1: 4.38e5; activity call: inactive
lncRNA:CR32730 (long non-coding RNA:CR32730) [DRSC22957] | stable assay Renilla, run 1: 6038; stable assay firefly, run 1: 6.27e5; activity call: inactive
Cyp12e1 (Cytochrome P450 12e1) [DRSC16622] | stable assay Renilla, run 1: 6634; stable assay firefly, run 1: 3.97e5; activity call: inactive
CG11779 + CG5835 [DRSC15886] | stable assay Renilla, run 1: 8023; stable assay firefly, run 1: 2.72e5; activity call: inactive
RhoGAP19D (Rho GTPase activating protein at 19D) [DRSC20499] | stable assay Renilla, run 1: 8631; stable assay firefly, run 1: 5.02e5; activity call: inactive
RhoGAP19D (Rho GTPase activating protein at 19D) [DRSC20500] | miRNA reporter change: reporter ratio lowered past the hit cutoff; stable assay Renilla, run 1: 6239; stable assay firefly, run 1: 4.19e5; activity call: inactive
Tpc1 [DRSC15614] | stable assay Renilla, run 1: 6740; stable assay firefly, run 1: 3.90e5; activity call: inactive
Tpc1 [DRSC16074] | stable assay Renilla, run 1: 7871; stable assay firefly, run 1: 3.86e5; activity call: inactive
ana (anachronism) [DRSC07579] | stable assay Renilla, run 1: 7632; stable assay firefly, run 1: 4.20e5; activity call: inactive
CG17287 [DRSC06659] | stable assay Renilla, run 1: 8155; stable assay firefly, run 1: 5.01e5; activity call: inactive
CrebA (Cyclic-AMP response element binding protein A) [DRSC11122] | stable assay Renilla, run 1: 7710; stable assay firefly, run 1: 3.05e5; activity call: inactive

Individual results from above:
Sxl + CG14425 (retired record) [DRSC18721], stable assay firefly, run 1: 3.34e5
Tpc1 [DRSC15614], activity call: inactive
